No constants are given. Whether binding was seen depends on the method and setting. In cells and extracts the contact can be indirect. A result given as binding can be weak or reduced; the word gives no strength.

Sequences of proteins named here, by UniProt entry; tags and fusion partners are left off. A change or cut given only in a name is not applied to a line headed by its entry.
UniProt P34152: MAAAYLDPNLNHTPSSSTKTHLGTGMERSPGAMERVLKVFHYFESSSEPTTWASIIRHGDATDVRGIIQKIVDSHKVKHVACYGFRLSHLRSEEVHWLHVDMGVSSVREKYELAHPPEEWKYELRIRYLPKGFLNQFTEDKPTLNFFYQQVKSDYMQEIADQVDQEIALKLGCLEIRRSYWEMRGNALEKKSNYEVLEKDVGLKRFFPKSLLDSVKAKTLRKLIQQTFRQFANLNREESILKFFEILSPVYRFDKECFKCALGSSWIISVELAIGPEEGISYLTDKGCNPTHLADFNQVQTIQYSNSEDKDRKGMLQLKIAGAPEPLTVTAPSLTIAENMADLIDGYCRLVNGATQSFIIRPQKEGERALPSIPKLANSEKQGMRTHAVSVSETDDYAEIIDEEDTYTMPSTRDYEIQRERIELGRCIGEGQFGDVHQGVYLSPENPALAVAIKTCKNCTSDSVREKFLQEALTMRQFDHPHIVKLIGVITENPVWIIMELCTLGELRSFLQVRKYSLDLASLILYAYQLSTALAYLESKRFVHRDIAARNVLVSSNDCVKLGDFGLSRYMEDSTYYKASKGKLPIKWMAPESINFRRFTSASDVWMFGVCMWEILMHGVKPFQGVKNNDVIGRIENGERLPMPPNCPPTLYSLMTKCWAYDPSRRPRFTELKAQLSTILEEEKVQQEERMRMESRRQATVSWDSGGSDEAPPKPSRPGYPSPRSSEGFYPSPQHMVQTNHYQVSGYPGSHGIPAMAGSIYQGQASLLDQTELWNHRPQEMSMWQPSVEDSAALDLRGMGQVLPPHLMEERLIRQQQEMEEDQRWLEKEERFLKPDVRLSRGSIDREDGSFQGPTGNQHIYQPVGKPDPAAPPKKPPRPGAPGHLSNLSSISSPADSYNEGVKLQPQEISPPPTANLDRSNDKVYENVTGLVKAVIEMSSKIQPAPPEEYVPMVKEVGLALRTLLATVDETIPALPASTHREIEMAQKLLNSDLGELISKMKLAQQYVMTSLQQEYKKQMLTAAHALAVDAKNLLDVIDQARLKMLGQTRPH
UniProt Q00534: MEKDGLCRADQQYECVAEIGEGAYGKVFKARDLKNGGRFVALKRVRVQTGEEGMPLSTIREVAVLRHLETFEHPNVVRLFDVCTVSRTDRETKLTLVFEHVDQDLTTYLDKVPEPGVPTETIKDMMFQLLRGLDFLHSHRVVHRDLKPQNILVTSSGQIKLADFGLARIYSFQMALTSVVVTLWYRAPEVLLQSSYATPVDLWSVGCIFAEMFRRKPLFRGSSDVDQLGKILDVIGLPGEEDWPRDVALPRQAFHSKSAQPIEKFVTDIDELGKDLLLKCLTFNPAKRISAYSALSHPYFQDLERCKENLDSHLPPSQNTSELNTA

The experiment addresses GFP-FERM (N-terminal FERM domain of FAK) (UniProt P34152). Description: co-IP; GFP-IP from HeLa cells transfected with GFP fusion constructs of FAK, treated with FAK-I and MG-132 for 6 h before immunoprecipitation; immunoblot for endogenous CDK4 and CDK6. (A western blot detects proteins with antibodies after separation by electrophoresis.)

On to “cyclin-dependent kinase 6 (CDK6) (from UniProt Q00534 1-326)”, for which the binding result is reported as “binds”.

These data come from article PMC9163754.
